From paper PMC6651687
The exact form of at least one protein or probe is not confirmed. A negative result means that nothing was seen under these conditions. Where a protein sequence is shown, tags need not be part of it.

Target: T1, TTHA0973 (PaaR, TetR family) (Thermus thermophilus HB8) (UniProt Q5SJN5)
T1 sequence (looked up, limits assumed): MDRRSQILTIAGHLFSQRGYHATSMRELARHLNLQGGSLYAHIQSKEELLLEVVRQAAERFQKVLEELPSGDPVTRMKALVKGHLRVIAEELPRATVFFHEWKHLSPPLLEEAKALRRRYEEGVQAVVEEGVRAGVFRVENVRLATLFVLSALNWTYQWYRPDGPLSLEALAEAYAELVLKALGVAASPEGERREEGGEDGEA
Assay: BLI
Conditions: up to 300 nM protein; BLI with 11, 33, 100, 300 nM TTHA0973; temperature not given (cited protocol); recombinant protein; label: biotin-dT at 5' of strand 2; letters put together from the description

Question: Does “CTAGGAATTCGTGCAGAGGTGAATCGTCATAGAATTCGTTACCATCCCTCCAGAAGCTTGGACA (double strand) [ST2_REPSAis control]” bind?
Answer: Result: no binding
